Data reported in patent US20060073146A1.
These are yes or no findings as the source states them, for the method shown. Some binding calls cover weakened binding; strength is not graded here. Where a sequence is shown, tags or fusion partners need not be part of it.

Target: TALL-1, membrane form on transfected COS 7 cells (chimeric ligand: TNF-alpha intracellular and transmembrane regions, TALL-1 extracellular region aa 75-285) (human) (UniProt P01375)
Experiment: Fc fusion on ligand-transfected COS 7 cells, Cy3 staining

B1: TACI-ECD.hFc immunoadhesin (amino acids 2-166 of human TACI fused to human IgG1 Fc) (Fc fusion, not shown: a dimerising Fc or GST)
chain: SGLGRSRRGGRSRVDQEERFPQGLWTGVAMRSCPEEQYWDPLLGTCMSCKTICNHQSQRTCAAFCRSLSCRKEQGKFYDHLLRDCISCASICGQHPKQCAYFCENKLRSPVNLPPELRRQRSGEVENNSDNSGRYQGLEHRGSEASPALPGLKLSADQVALVYST
B1 was tested, and the binding was “binds”.
